Results as given in article PMC5665977.
Results are given in words; binding and its absence hold for the method and conditions named. In cells and extracts the contact can be indirect. A yes stands for co-enrichment or nearness to the bait. Other partners may have been found.

Target: T1, Atp10^ProtA (S. cerevisiae) (UniProt P18496)
T1 sequence: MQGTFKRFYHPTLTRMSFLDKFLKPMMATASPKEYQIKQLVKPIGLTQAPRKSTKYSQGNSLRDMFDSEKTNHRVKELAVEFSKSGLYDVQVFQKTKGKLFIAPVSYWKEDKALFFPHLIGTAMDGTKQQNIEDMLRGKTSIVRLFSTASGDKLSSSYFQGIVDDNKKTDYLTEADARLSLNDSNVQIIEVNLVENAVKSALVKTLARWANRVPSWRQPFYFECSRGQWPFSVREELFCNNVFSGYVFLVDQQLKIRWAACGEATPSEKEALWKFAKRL
Test: affinity purification with mass spectrometry; Atp10^ProtA complexes purified by IgG-affinity chromatography from Atp10^ProtA and Atp10^ProtA ina22Δ mitochondria, BN-PAGE, LC-MS, label-free quantification

B1: Atp16 (protein, UniProt Q12165 23-160)
chain: AEAAAASSGLKLQFALPHETLYSGSEVTQVNLPAKSGRIGVLANHVPTVEQLLPGVVEVMEGSNSKKFFISGGFATVQPDSQLCVTAIEAFPLESFSQENIKNLLAEAKKNVSSSDAREAAEAAIQVEVLENLQSVLK
  binding: binds
